{"source": "patent US12448655B2", "about": "“Antibiotic susceptibility of microorganisms and related methods and systems” (CALIFORNIA INSTITUTE OF TECHNOLOGY, priority 2017, dated 2025)", "test_system": "Neisseria gonorrhoeae", "assay": "Two-step nuc-aAST on Ng clinical urine samples and their isolates, TNP enhancer (Examples 35, 37)", "type": "cell-based", "conditions": "antibiotic-susceptible and intermediate (not-resistant) samples and isolates (Sample #1, #2); 1 μg/mL 30 min, then TNP 3-5 min, DNaseI", "description": "Clinical sample nuc-aAST. Suspensions of clinical urine samples were prepared as described above. All suspensions were generated, and the ABX-exposure step initiated within 90 min of sample donation. The initial ABX-exposure was performed by incubating 50 μL control and treated samples at 37° C. in PCR tube strips on a BioRad C1000 Thermal Cycler. Treated samples consisted of […] of suspension and 1.25 μL aliquot of PEN or CRO (40 μg/mL). ABX were replaced with NF—H2O in control samples. After 30 min of incubation, samples were vortexed and quickly spun on a benchtop microcentrifuge (Labnet) at 2,000×g for 2-3 sec, and 2.7 μL TNP (100 mM) was added to each sample for the enhancement step. Samples were then immediately vortexed, spun on a benchtop microcentrifuge (Labnet) at 2,000×g for 2-3 sec, and incubated at 37° C. for 3-5 min. After the enhancement step, 20 μL from each sample was extracted by diluting 5× in QuickExtract DNA Extraction Solution (Lucigen) and heating for 6 min at 65° C. followed by 4 min at 98° C. on a BioRad C1000 Thermal Cycler. All sample handling following ABX exposure was performed using a multichannel pipette; qPCR and calculation of percentage accessibility were performed as previously described, with the modification that the qPCR mix included 2 μL of template per 10 μL PCR reaction instead of 1 μL template per 10 μL reaction. […]", "note": "Some of these results come from one statement about several compounds together.", "data": [{"smiles": "CO/N=C(\\C(=O)N[C@@H]1C(=O)N2C(C(=O)O)=C(CSc3nc(=O)c(=O)[nH]n3C)CS[C@H]12)c1csc(N)n1", "note": "[CRO, ceftriaxone]", "values": [{"measurement": "mean percentage accessibility of DNA", "result": "> 46", "unit": "%"}]}]}
